Structures can show the parent of a compound that is named as a salt. Some of the results follow. Many values rest on one well or one pass, so single values are uncertain.
Each compound was assayed on Echinococcus multilocularis metacestodes (assay: vesicle damage (PGI release) relative to positive control DB1127 at 20 µM, DMSO subtracted; higher = more parasite damage). Settings: treatment time 5 days.
Method: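 In vitro-cultured E. multilocularis metacestode vesicles (isolate H95, 2-4 mm) were treated in singlets with each drug of the Selleck FDA-approved library (426 drugs) at 20 µM for 5 days at 37°C. Damage was read as phosphoglucose isomerase (PGI) release into the medium, measured as the increase in absorbance at 340 nm. Activity was expressed as % of the positive control DB1127 (20 µM) after subtracting the DMSO control; a hit was defined as ≥50% of DB1127.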

How did the vesicle damage turn out when `Nc1nc2ccc(OC(F)(F)F)cc2s1` [Riluzole] was run?
Its vesicle damage is -1.85%.

With `CC[C@H]1OC(=O)[C@H](C)[C@@H](O[C@H]2C[C@@](C)(OC)[C@@H](O)[C@H](C)O2)[C@H](C)[C@@H](O[C@@H]2O[C@H](C)C[C@H](N(C)C)[C@H]2O)[C@](C)(O)C[C@@H](C)C(=O)[C@H](C)[C@@H](O)[C@]1(C)O` [Erythromycin] as the compound, how does the vesicle damage read?
The vesicle damage was 2.27%.

Which vesicle damage does the source give for `CN1C(C(=O)Nc2ccccn2)=C(O)c2ccccc2S1(=O)=O` [Piroxicam] here?
Its vesicle damage is -12.7%.

Which vesicle damage does the source give for `CN(C)CCc1c[nH]c2ccc(C[C@H]3COC(=O)N3)cc12` [Zolmitriptan] here?
The vesicle damage was 1.11%.

Which vesicle damage does the source give for `COc1cccc2c1C(=O)c1c(O)c3c(c(O)c1C2=O)C[C@@](O)(C(=O)CO)C[C@@H]3O[C@H]1C[C@H](N)[C@H](O)[C@H](C)O1` [Adriamycin] here?
The vesicle damage was -0.342%.

Which vesicle damage does the source give for `COc1cccc2c1C(=O)c1c(O)c3c(c(O)c1C2=O)C[C@@](O)(C(=O)CO)C[C@@H]3O[C@H]1C[C@H](N)[C@@H](O)[C@H](C)O1` [Epirubicin Hydrochloride] here?
Its vesicle damage is 3.67%.

Which vesicle damage does the source give for `COCCCOc1cc(C[C@@H](C[C@H](N)[C@@H](O)C[C@H](C(=O)NCC(C)(C)C(N)=O)C(C)C)C(C)C)ccc1OC` [Aliskiren hemifumarate] here?
Its vesicle damage is 3.14%.

With `CNC(=C[N+](=O)[O-])NCCSCc1ccc(CN(C)C)o1` [Ranitidine Hydrochloride] as the compound, how does the vesicle damage read?
The vesicle damage was -14%.

How did the vesicle damage turn out when `CN1CCCC(n2nc(Cc3ccc(Cl)cc3)c3ccccc3c2=O)CC1` (stereo not given) [Azelastine hydrochloride] was run?
The vesicle damage was 4.71%.

`C[C@@](Cc1ccc(O)c(O)c1)(NN)C(=O)O` [Carbidopa] was tested. Which vesicle damage did it give?
The vesicle damage was -4.87%.

For `COc1c(C)c2c(c(O)c1C/C=C(\C)CCC(=O)OCCN1CCOCC1)C(=O)OC2` [Mycophenolate mofetil], which vesicle damage is on record?
Its vesicle damage is -1.81%.

How did the vesicle damage turn out when `CC(C)C(=O)Oc1ccc(CO)cc1[C@H](CCN(C(C)C)C(C)C)c1ccccc1` [Fesoterodine fumarate] was run?
Its vesicle damage is -0.981%.

How did the vesicle damage turn out when `CC(=O)O[C@@]12CO[C@@H]1C[C@H](O)[C@@]1(C)C(=O)[C@H](O)C3=C(C)[C@@H](OC(=O)[C@H](O)[C@@H](NC(=O)OC(C)(C)C)c4ccccc4)C[C@@](O)([C@@H](OC(=O)c4ccccc4)[C@H]21)C3(C)C` [Docetaxel] was run?
The vesicle damage was -4.32%.

For `Nc1nc2[nH]cnc2c(=S)[nH]1` [Thioguanine], which vesicle damage is on record?
The vesicle damage was -9.75%.

For `Nc1ccc(O)c(C(=O)O)c1` [Mesalamine], which vesicle damage is on record?
The vesicle damage was -2.69%.

`NNC(=O)c1ccncc1` [Isoniazid] was tested. Which vesicle damage did it give?
The vesicle damage was 0.0915%.

`C[C@H]1C[C@@H]2[C@H]([C@@H](O)C[C@@]3(C)[C@H]2CC[C@]3(O)C(=O)CO)[C@@]2(C)C=CC(=O)C=C12` [Methylprednisolone] was tested. Which vesicle damage did it give?
The vesicle damage was -11%.

With `O=C1c2c(O)ccc(O)c2C(=O)c2c(NCCNCCO)ccc(NCCNCCO)c21` [Mitoxantrone] as the compound, how does the vesicle damage read?
Its vesicle damage is -0.903%.

With `CN1CCN(C2=Nc3cc(Cl)ccc3Nc3ccccc32)CC1` [Clozapine] as the compound, how does the vesicle damage read?
The vesicle damage was 1.79%.

For `CN(C)c1ccc(C(=C2C=CC(=[N+](C)C)C=C2)c2ccc(N(C)C)cc2)cc1` [Crystal violet], which vesicle damage is on record?
Its vesicle damage is 128%.

Which vesicle damage does the source give for `Cc1cnc(C(=O)NCCc2ccc(S(=O)(=O)NC(=O)NC3CCCCC3)cc2)cn1` [Glipizide] here?
The vesicle damage was -13.8%.

`O=C(c1ccccc1)c1ccc2n1CCC2C(=O)O` (stereo not given) [Ketorolac Tromethamine] was tested. Which vesicle damage did it give?
Its vesicle damage is -1.05%.

`CO[C@H]1O[C@@H]2O[C@@]3(C)CC[C@H]4[C@H](C)CC[C@@H]([C@H]1C)[C@@]24OO3` [Artemether] was tested. Which vesicle damage did it give?
The vesicle damage was -0.529%.

How did the vesicle damage turn out when `CCCCC(=O)O[C@]1(C(=O)CO)[C@@H](C)C[C@H]2[C@@H]3CCC4=CC(=O)C=C[C@]4(C)[C@@]3(F)[C@@H](O)C[C@@]21C` [Betamethasone valerate] was run?
Its vesicle damage is 9%.

`COc1ccc(/C=C/C(=O)Nc2ccccc2C(=O)O)cc1OC` [Tranilast] was tested. Which vesicle damage did it give?
Its vesicle damage is -1.55%.

Which vesicle damage does the source give for `OC(CNCC(O)C1CCc2cc(F)ccc2O1)C1CCc2cc(F)ccc2O1` (stereo not given) [Nebivolol HCl] here?
The vesicle damage was -6.68%.

With `CCc1nc(N)nc(N)c1-c1ccc(Cl)cc1` [Pyrimethamine] as the compound, how does the vesicle damage read?
The vesicle damage was 0.646%.

With `C=CC1=C(C(=O)O)N2C(=O)[C@@H](NC(=O)/C(=N\O)c3csc(N)n3)[C@H]2SC1` [Cefdinir] as the compound, how does the vesicle damage read?
The vesicle damage was -1.6%.

With `CC(=O)OCC(=O)[C@@]12OC(C)(C)O[C@@H]1C[C@H]1[C@@H]3C[C@H](F)C4=CC(=O)C=C[C@]4(C)[C@@]3(F)[C@@H](O)C[C@@]12C` [Fluocinonide] as the compound, how does the vesicle damage read?
The vesicle damage was 0.694%.

For `COc1cccc2c1C(=O)c1c(O)c3c(c(O)c1C2=O)C[C@@](O)(C(C)=O)C[C@@H]3O[C@H]1C[C@H](N)[C@H](O)[C@H](C)O1` [Cerubidine], which vesicle damage is on record?
Its vesicle damage is 2.71%.

`CCN(CC)CCNC(=O)c1c(C)[nH]c(/C=C2\C(=O)Nc3ccc(F)cc32)c1C` [Sunitinib Malate] was tested. Which vesicle damage did it give?
Its vesicle damage is 3.13%.

Which vesicle damage does the source give for `COCCOC(=O)C1=C(C)NC(C)=C(C(=O)OC(C)C)C1c1cccc([N+](=O)[O-])c1` (stereo not given) [Nimodipine] here?
Its vesicle damage is -12.8%.

How did the vesicle damage turn out when `C[C@]12CCC(=O)C=C1CC[C@@H]1[C@@H]2[C@@H](O)C[C@@]2(C)[C@H]1CC[C@]2(O)C(=O)CO` [Hydrocortisone] was run?
Its vesicle damage is -3.97%.

With `CCCCCCOC(=O)NC(=N)c1ccc(NCc2nc3cc(C(=O)N(CCC(=O)OCC)c4ccccn4)ccc3n2C)cc1` as the compound, how does the vesicle damage read?
Its vesicle damage is 3.7%.

`CC(C(=O)O)c1ccc(-c2ccccc2)c(F)c1` (stereo not given) [Flurbiprofen] was tested. Which vesicle damage did it give?
The vesicle damage was -1.29%.

For `CS(=O)(=O)CCNCc1ccc(-c2ccc3ncnc(Nc4ccc(OCc5cccc(F)c5)c(Cl)c4)c3c2)o1` [Lapatinib Ditosylate], which vesicle damage is on record?
The vesicle damage was 5.98%.

For `COc1ccccc1OCC(O)CO` (stereo not given) [Guaifenesin], which vesicle damage is on record?
Its vesicle damage is -7.65%.

Which vesicle damage does the source give for `CN(N=O)C(=O)N[C@@H](C=O)[C@@H](O)[C@H](O)[C@H](O)CO` [Streptozotocin] here?
The vesicle damage was 2.85%.

For `CC(C)(C#N)c1cc(Cn2cncn2)cc(C(C)(C)C#N)c1` [Anastrozole], which vesicle damage is on record?
The vesicle damage was -0.238%.

With `CN1CCC[C@@H]1CCO[C@](C)(c1ccccc1)c1ccc(Cl)cc1` [Clemastine fumarate] as the compound, how does the vesicle damage read?
The vesicle damage was 0.292%.

Source: the supplement of paper PMC4256282, “Profound Activity of the Anti-cancer Drug Bortezomib against Echinococcus multilocularis Metacestodes Identifies the Proteasome as a Novel Drug Target for Cestodes” (PLoS Neglected Tropical Diseases, 2014)
